Laboratory results published in doi:10.1101/2025.07.04.663186.
Like-named read-outs stand apart in the source and are kept apart here. These are yes or no findings as the source states them, for the method shown. In cells and extracts the contact can be indirect. Some entries that bind do so weakly or less than the wild type. Tags and fused reporters may be left off the sequences shown.

Amino acid sequences for entries named in this document (tags omitted). A change or cut given only in a name is not applied to a line headed by its entry. Residues count along the entry.
UniProt Q96B97: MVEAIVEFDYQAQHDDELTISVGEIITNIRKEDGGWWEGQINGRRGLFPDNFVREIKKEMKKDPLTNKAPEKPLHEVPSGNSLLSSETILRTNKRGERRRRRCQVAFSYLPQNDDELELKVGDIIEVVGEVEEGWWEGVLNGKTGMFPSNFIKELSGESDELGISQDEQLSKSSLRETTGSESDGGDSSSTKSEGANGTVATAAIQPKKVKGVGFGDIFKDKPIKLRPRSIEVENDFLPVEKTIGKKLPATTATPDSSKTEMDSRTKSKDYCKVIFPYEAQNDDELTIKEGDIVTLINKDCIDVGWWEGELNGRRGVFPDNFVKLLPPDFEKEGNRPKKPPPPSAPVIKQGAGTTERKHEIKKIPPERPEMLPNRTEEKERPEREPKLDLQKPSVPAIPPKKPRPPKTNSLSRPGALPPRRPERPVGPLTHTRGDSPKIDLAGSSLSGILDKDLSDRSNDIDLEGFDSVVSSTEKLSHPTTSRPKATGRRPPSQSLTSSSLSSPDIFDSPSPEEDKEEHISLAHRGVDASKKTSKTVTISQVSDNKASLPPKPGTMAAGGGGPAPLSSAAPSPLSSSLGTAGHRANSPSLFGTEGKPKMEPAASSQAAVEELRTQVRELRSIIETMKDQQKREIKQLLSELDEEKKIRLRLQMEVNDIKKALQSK
myc-ASAP-3' (aa 589 - aa1129) (Q9ULH1, residues 589-1129): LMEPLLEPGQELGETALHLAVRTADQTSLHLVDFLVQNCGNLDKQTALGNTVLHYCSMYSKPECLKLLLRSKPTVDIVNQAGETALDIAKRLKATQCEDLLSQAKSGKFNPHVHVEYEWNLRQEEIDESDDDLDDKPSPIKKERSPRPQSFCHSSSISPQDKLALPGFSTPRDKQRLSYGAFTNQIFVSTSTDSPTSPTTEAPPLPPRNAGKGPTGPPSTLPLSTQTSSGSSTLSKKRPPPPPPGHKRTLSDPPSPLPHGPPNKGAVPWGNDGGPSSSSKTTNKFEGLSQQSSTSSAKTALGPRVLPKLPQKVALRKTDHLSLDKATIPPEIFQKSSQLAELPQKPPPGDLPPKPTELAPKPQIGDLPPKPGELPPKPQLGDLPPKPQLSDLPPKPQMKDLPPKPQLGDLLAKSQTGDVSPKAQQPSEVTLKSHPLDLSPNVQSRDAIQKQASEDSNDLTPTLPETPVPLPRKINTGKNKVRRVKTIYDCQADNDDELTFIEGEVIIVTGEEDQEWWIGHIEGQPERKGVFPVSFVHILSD
myc-ASAP1 construct 3 (residue 589-937) (Q9ULH1, residues 589-937): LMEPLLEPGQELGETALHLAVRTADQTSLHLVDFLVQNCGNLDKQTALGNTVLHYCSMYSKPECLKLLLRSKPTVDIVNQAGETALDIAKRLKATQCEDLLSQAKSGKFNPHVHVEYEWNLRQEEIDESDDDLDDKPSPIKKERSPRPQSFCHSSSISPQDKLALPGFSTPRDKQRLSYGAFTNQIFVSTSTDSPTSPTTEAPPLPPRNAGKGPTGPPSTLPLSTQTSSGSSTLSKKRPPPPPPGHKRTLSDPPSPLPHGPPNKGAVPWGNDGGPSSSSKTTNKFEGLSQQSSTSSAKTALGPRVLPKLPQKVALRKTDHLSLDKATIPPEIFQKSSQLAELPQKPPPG

Assays:
Assay in all cases: co-IP
GFP-MYO1F tail (human) = molecular target: T1, GFP-MYO1F tail (human) (UniProt O00160)
T1 sequence: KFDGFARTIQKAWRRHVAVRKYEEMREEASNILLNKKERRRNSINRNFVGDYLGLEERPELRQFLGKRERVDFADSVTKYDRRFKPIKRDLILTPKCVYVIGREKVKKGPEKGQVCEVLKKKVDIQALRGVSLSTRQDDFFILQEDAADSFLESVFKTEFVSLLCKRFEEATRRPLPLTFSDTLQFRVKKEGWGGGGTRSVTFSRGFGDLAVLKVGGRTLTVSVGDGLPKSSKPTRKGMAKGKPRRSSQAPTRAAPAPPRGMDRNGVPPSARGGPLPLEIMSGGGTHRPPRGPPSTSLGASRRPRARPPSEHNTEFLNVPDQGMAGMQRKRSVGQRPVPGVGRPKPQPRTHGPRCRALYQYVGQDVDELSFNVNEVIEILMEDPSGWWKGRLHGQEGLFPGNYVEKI

[1] = molecular target: T2, GFP-MYO1F (full-length) (human) (UniProt O00160)
T2 sequence: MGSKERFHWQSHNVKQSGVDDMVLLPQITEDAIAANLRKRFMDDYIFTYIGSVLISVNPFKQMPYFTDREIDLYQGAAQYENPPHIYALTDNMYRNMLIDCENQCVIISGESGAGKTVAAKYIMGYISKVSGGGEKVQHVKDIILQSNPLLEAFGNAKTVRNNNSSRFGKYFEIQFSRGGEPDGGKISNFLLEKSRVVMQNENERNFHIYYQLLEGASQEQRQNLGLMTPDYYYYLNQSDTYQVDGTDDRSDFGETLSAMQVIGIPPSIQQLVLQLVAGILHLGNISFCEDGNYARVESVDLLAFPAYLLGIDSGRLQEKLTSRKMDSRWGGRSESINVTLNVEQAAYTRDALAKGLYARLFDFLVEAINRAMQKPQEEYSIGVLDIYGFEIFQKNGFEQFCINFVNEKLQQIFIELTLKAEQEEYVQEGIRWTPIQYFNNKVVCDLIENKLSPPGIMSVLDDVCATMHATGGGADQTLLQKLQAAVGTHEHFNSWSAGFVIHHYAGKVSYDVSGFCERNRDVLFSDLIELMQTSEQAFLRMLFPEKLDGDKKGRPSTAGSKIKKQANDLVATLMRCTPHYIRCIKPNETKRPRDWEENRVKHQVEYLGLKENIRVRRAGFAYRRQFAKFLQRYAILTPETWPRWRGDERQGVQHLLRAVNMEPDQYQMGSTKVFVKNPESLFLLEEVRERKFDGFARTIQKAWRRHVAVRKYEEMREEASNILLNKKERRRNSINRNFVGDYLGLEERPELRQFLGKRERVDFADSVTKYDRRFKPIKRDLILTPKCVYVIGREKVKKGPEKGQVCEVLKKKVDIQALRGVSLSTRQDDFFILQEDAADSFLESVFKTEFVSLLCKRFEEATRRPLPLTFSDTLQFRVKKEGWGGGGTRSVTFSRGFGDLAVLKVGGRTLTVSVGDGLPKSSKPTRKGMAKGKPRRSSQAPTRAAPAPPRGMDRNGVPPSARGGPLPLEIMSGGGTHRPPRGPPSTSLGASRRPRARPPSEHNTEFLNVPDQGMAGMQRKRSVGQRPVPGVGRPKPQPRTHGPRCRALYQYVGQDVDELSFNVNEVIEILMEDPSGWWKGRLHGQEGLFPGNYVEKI

[2] = molecular target: T2, GFP-MYO1F (full-length) (human); remark: listed apart in the source
[3] = molecular target: T2, GFP-MYO1F (full-length) (human); remark: listed apart in the source

Row | Molecule | binding [2] | binding [3] | also measured
1 | SH3KBP1, endogenous in RPE (from UniProt Q96B97 1-665) | – | – | binding (GFP-MYO1F tail (human)): binds
2 | myc-ASAP1 construct 3 (residue 589-937) (from UniProt Q9ULH1 589-937) (domain or fragment) | – | – | binding [1]: binds
3 | myc-ASAP-3' (aa 589 - aa1129) (from UniProt Q9ULH1 589-1129) (domain or fragment) | binds | – | binding [1]: binds
4 | myc-SH3KBP1 (from UniProt Q96B97 1-665) | binds | – | –
5 | myc-SH3BP2 (wild-type) (protein, UniProt P78314 1-561) MAAEEMHWPVPMKAIGAQNLLTMPGGVAKAGYLHKKGGTQLQLLKWPLRFVIIHKRCVYYFKSSTSASPQGAFSLSGYNRVMRAAEETTSNNVFPFKIIHISKKHRTWFFSASSEEERKSWMALLRREIGHFHEKKDLPLDTSDSSSDTDSFYGAVERPVDISLSPYPTDNEDYEHDDEDDSYLEPDSPEPGRLEDALMHPPAYPPPPVPTPRKPAFSDMPRAHSFTSKGPGPLLPPPPPKHGLPDVGLAAEDSKRDPLCPRRAEPCPRVPATPRRMSDPPLSTMPTAPGLRKPPCFRESASPSPEPWTPGHGACSTSSAAIMATATSRNCDKLKSFHLSPRGPPTSEPPPVPANKPKFLKIAEEDPPREAAMPGLFVPPVAPRPPALKLPVPEAMARPAVLPRPEKPQLPHLQRSPPDGQSFRSFSFEKPRQPSQADTGGDDSDEDYEKVPLPNSVFVNTTESCEVERLFKATSPRGEPQDGLYCIRNSSTKSGKVLVVWDETSNKVRNYRIFEKDSKFYLEGEVLFVSVGSMVEHYHTHVLPSHQSLLLRHPYGYTGPR | binds | binds | –
6 | myc-SH3BP2 K356A (protein, UniProt P78314 1-561) MAAEEMHWPVPMKAIGAQNLLTMPGGVAKAGYLHKKGGTQLQLLKWPLRFVIIHKRCVYYFKSSTSASPQGAFSLSGYNRVMRAAEETTSNNVFPFKIIHISKKHRTWFFSASSEEERKSWMALLRREIGHFHEKKDLPLDTSDSSSDTDSFYGAVERPVDISLSPYPTDNEDYEHDDEDDSYLEPDSPEPGRLEDALMHPPAYPPPPVPTPRKPAFSDMPRAHSFTSKGPGPLLPPPPPKHGLPDVGLAAEDSKRDPLCPRRAEPCPRVPATPRRMSDPPLSTMPTAPGLRKPPCFRESASPSPEPWTPGHGACSTSSAAIMATATSRNCDKLKSFHLSPRGPPTSEPPPVPANAPKFLKIAEEDPPREAAMPGLFVPPVAPRPPALKLPVPEAMARPAVLPRPEKPQLPHLQRSPPDGQSFRSFSFEKPRQPSQADTGGDDSDEDYEKVPLPNSVFVNTTESCEVERLFKATSPRGEPQDGLYCIRNSSTKSGKVLVVWDETSNKVRNYRIFEKDSKFYLEGEVLFVSVGSMVEHYHTHVLPSHQSLLLRHPYGYTGPR | – | binds | –
7 | myc-SH3BP2 ΔPPVPANK (protein, UniProt P78314) MAAEEMHWPVPMKAIGAQNLLTMPGGVAKAGYLHKKGGTQLQLLKWPLRFVIIHKRCVYYFKSSTSASPQGAFSLSGYNRVMRAAEETTSNNVFPFKIIHISKKHRTWFFSASSEEERKSWMALLRREIGHFHEKKDLPLDTSDSSSDTDSFYGAVERPVDISLSPYPTDNEDYEHDDEDDSYLEPDSPEPGRLEDALMHPPAYPPPPVPTPRKPAFSDMPRAHSFTSKGPGPLLPPPPPKHGLPDVGLAAEDSKRDPLCPRRAEPCPRVPATPRRMSDPPLSTMPTAPGLRKPPCFRESASPSPEPWTPGHGACSTSSAAIMATATSRNCDKLKSFHLSPRGPPTSEPPKFLKIAEEDPPREAAMPGLFVPPVAPRPPALKLPVPEAMARPAVLPRPEKPQLPHLQRSPPDGQSFRSFSFEKPRQPSQADTGGDDSDEDYEKVPLPNSVFVNTTESCEVERLFKATSPRGEPQDGLYCIRNSSTKSGKVLVVWDETSNKVRNYRIFEKDSKFYLEGEVLFVSVGSMVEHYHTHVLPSHQSLLLRHPYGYTGPR | – | binds | –
